pIC50: −log10 of the molar value.
Biological target: dihydropyridine binding sites on the L-type calcium channels
Parameters: species or system rat
Conditions: read-out: concentration giving 50% inhibition of [3H]nimodipine binding
Description: Other compounds which act through the same binding site as the dihydropyridines will inhibit this [^3 H]nimodipine binding.

With `COC(=O)C1=C(C)NC(C)=C(C(=O)OC)C1c1ccccc1[N+](=O)[O-]` [nifedipine, reference compound] the pIC50 was about 7.70.

Reference: US5312928A, “Calcium channel antagonists and methodology for their identification” (priority 1991, dated 1994)
